Assay results reported in article PMC6469676 (SLAS discovery : advancing life sciences R & D, 2018).

Test system: Vero E6 cells

## COC(=O)C1=C(C)NC(C)=C(C(=O)OC)C1c1ccccc1[N+](=O)[O-] [nifedipine]
  cytopathic effects after 24 hours: minimal cytopathic effects
